Out of some 310,000 compounds screened, about 17,000 (5.5%) were called active. This list was built around the results that the source calls inconclusive (neither active nor inactive); the mix of calls is not that of the screen. Calls come from the whole dose curve; as a rule, active = well fitted inhibition curve with a large enough effect; inconclusive = small, poorly fitted or top-dose-only effect, or effect the other way; inactive = no such curve, though single readings can be large or run the other way. A potency beside an inconclusive call is a rough fit, not a confirmed value.
Molecular target: Nuclear receptor ROR-gamma (Mus musculus) (UniProt P51450)
Test: qHTS for inhibitors of ROR gamma transcriptional activity; note: nearly all actives have a fitted effect of over 60% in size
Settings: Drosophila S2 Gal4-RORgamma UAS-luciferase reporter, 20 h; activity change, negative = inhibition: at 53.6 µM (top of the series)
Method in brief: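 Luciferase reporter read in Schneider cells carrying Gal4-RORγ (mouse) and UAS-Photinus luciferase; cells given compound 1 h before 700 uM copper sulfate induction, then incubated 20 h at ambient temperature.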
% is set by controls: 0 for no effect and ±100 for the full control effect; potency is the fitted concentration of half-maximal effect.

Protein sequences, listed by entry. Tags and fused reporters are not part of them. Lines headed by an entry give the natural chain unless they say otherwise; changes in a name come on top.
UniProt P51450: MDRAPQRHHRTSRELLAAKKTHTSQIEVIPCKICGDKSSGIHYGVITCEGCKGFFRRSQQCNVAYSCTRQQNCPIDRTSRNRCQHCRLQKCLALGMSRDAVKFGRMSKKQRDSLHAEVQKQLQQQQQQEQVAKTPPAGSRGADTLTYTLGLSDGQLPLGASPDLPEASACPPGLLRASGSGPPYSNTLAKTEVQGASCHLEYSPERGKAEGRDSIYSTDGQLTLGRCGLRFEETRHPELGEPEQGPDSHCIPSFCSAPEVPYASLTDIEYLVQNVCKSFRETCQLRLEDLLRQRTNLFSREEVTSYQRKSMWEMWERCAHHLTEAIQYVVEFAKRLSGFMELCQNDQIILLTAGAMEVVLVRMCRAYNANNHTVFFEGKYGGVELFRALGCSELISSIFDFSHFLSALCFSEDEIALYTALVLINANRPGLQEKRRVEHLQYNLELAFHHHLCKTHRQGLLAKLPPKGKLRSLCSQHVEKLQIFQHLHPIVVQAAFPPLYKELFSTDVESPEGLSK

Compound	Potency	activity change, negative = inhibition
O=C(NC(=S)NNC(=O)[C@H]1C[C@@H]1c1ccccc1)c1cccc(F)c1	active: 11.2 µM	
NNC(=O)c1ccncc1	inconclusive: 14.1 µM [activator, single point]	
COc1ccccc1C(c1nnnn1C(C)(C)C)N1CCN(C(=O)c2ccco2)CC1 (centres undefined)		inactive: -2.98%
COc1cccc(C(=O)Nc2ccc(C)cc2)c1	inconclusive: 35.5 µM [inhibitor, single point]	
Cc1ccc(C)c(NC(=S)Nc2ncccc2C)c1	active: 3.55 µM	
O=C(NCCc1ccccn1)c1cccc(S(=O)(=O)N2CCCCCC2)c1	inconclusive: 14.1 µM [activator, single point]	
CCCc1cc(-c2n[nH]c(=S)n2Cc2ccccc2)cs1	active: 4.47 µM	
CCN1/C(=C\C=C2\C(=O)N(c3ccccc3)C(=S)N2C)Sc2ccccc21		inactive: -12.7%
CCOC(=O)N1CCN(c2ncnc3c2[nH]c2ccc(F)cc23)CC1	inconclusive: 35.5 µM [inhibitor, single point]	
COC(=O)NC(/C(C(=O)OC)=C(\C)NCc1ccccc1)c1cccc(C)c1 (centres undefined)		inactive: -10.8% [at 10 µM]
COc1cc(/C=C2\SC(=Nc3ccc(N4CCOCC4)cc3)N(C)C2=O)ccc1OC(C)C(=O)O (centres undefined)	inconclusive: 20 µM [activator, single point]	
Cc1ccc(-n2ncc3c2ncn2nc(-c4ccco4)nc32)c(C)c1	inconclusive: 12.6 µM [activator, partial curve]	
Cc1ccccc1NCC(=O)N/N=C\c1ccc2c(c1)OCO2	inconclusive: 12.6 µM [activator, single point]	
NC(=O)CC(NC(=O)c1ccc(Br)cc1)c1ccc(N2CCN(c3ccccc3)CC2)c([N+](=O)[O-])c1 (centres undefined)	inconclusive: 22.4 µM [activator, single point]	
O=C(NC(NC(=S)Nc1ccccc1C(=O)O)C(Cl)(Cl)Cl)c1ccco1 (centres undefined)		inactive: -23.3%
O=[N+]([O-])c1ccccc1/C=C/C=N/n1c(-c2ccccc2F)n[nH]c1=S	active: 14.1 µM	
CC(=O)c1cccc(OCc2cc(C(=O)N3CC4C[C@@H]5CC3C[C@H](C4)C5)no2)c1	inconclusive: 12.6 µM [activator, single point]	
CC(Nc1cc(N2CCN(S(=O)(=O)N(C)C)CC2)ccc1[N+](=O)[O-])c1ccccc1 (centres undefined)		inactive: 2.82%
COC(=O)c1cc2c(N)c(C(=O)c3ccccc3)sc2nc1C(OC)OC	inconclusive: 11.2 µM [activator, partial curve, poor fit]	
NCCCNC(=O)c1cc2ccccc2[nH]1	inconclusive: 1.26 µM [inhibitor, single point]	
Cc1ccc(C(=O)N2CC(=O)Nc3ccc(F)cc3C2c2ccc(F)cc2)cc1[N+](=O)[O-] (centres undefined)	inconclusive: 25.1 µM [activator, single point]	
Cc1ccc(Nc2nc(N)c(C#N)c(CC#N)c2C#N)cc1		inactive: 20%
COc1ccccc1/C=C1\SC(=O)N(CCC(=O)NNC(=O)c2ccccc2Cl)C1=O	inconclusive: 2.51 µM [inhibitor, full curve]	
O=C(O)c1ccc(CN2C(=O)c3ccc(C(=O)O)cc3C2=O)cc1		inactive: -17.7%
Cc1nc(C)c(-c2nnc(-c3ccccc3Cl)o2)cc1C(=O)NN		inactive: -17.7%

3 structures from above, sorted by length of the SMILES, smallest number first:
Compound	Potency	activity change, negative = inhibition
COC(=O)NC(/C(C(=O)OC)=C(\C)NCc1ccccc1)c1cccc(C)c1 (centres undefined)		inactive: -10.8% [at 10 µM]
CC(=O)c1cccc(OCc2cc(C(=O)N3CC4C[C@@H]5CC3C[C@H](C4)C5)no2)c1	inconclusive: 12.6 µM [activator, single point]	
Cc1ccc(C(=O)N2CC(=O)Nc3ccc(F)cc3C2c2ccc(F)cc2)cc1[N+](=O)[O-] (centres undefined)	inconclusive: 25.1 µM [activator, single point]	

Following part:

Compound	Potency	activity change, negative = inhibition
CCOC(=O)c1cc2c(=O)n3cccc(C)c3nc2n(Cc2ccco2)c1=NC(=O)c1ccccc1		inactive: -3.66%
CC(C)NC(=S)Nc1ccc(Oc2ccccc2)cc1	inconclusive: 0.794 µM [activator, full curve, poor fit]	
C=C1C=CS(=O)(=O)N(Cc2ccccc2)C1	inconclusive: 35.5 µM [inhibitor, single point]	
CN(c1cccc(NC(=O)COc2ccc(Cl)cc2Cl)c1)S(C)(=O)=O	inconclusive: 1.26 µM [activator, partial curve]	
O=C(NCC1CCCO1)c1ccc2nc(N3CCCCC3)sc2c1 (centres undefined)	active: 7.08 µM	
CNS(=O)(=O)c1cn(CC(=O)NCc2ccc(N(C)C)cc2)cc1S(=O)(=O)NC		inactive: -0.581%
CC(Cl)C(=O)c1ccc2c(c1)CCN2C(=O)C1CC1 (centres undefined)	inconclusive: 22.4 µM [inhibitor, single point]	
COCCNC(=O)CN(Cc1ccco1)C(=O)CCC(=O)Nc1nccs1		inactive: -1.62%
COc1ccc(-c2csc3ncnc(N4CCN(c5ccc(OC)cc5)CC4)c23)cc1		inactive: -7.4%
Cc1ccc(N2C(=O)C3CCCN3C2=S)cc1Cl (centres undefined)		inactive: -12.9%
C[C@]1(C(=O)NCCc2c[nH]c3ccccc23)C=C[C@@H](Cc2ccccc2)N1C(=O)c1ccccc1	inconclusive: 35.5 µM [activator, single point]	
Cc1ccc(NC(=O)CN2CCN(Cc3ccccc3)CC2)c(Br)c1		inactive: 20%
CC(C)C(NC(=O)c1ccccc1)C(=O)OCc1cc([N+](=O)[O-])cc2c1OCOC2 (centres undefined)	inconclusive: 6.31 µM [activator, partial curve]	
C/C(=N/NC(=O)c1ccc2nc[nH]c2c1)c1cccs1		inactive: -29.4%
CC(C)n1cc(C(N)=S)c(=O)n(Cc2ccccc2)c1=O	inconclusive: 14.1 µM [inhibitor, partial curve, poor fit]	
Cc1cccc(C(=O)N2CCN(c3ccc([N+](=O)[O-])c(NCc4ccco4)c3)CC2)c1	inconclusive: 6.31 µM [activator, partial curve]	
Cc1ccc(-n2[nH]c(C)c(C=Nc3ccc4[nH]c(=O)[nH]c4c3)c2=O)cc1		inactive: 21.9% [at 10 µM]
O=C(CSc1nc2c(c(=O)[nH]1)CN(Cc1ccc(F)cc1)CC2)Nc1ccc(F)cc1	inconclusive: 10 µM [activator, partial curve]	
COC(=O)c1sc(SC)nc1N		inactive: 8.53%
Cc1ccccc1NC(=S)NCc1cccs1	inconclusive: 35.5 µM [inhibitor, single point]	
c1ccc(CSc2ncn(-c3ccccc3)n2)cc1	inconclusive: 4.47 µM [activator, partial curve, poor fit]	
Cc1cnc(C(=O)Nc2ccc(F)c(F)c2)cn1	inconclusive: 5.62 µM [activator, single point]	
c1ccc(-c2nn3c(Cn4nnc5ccccc54)nnc3s2)nc1		inactive: 9.77%
c1cc2c(cc1Nc1nc(-c3ccc4c(c3)OCO4)cs1)OCCO2	inconclusive: 0.794 µM [inhibitor, single point]	
CCNC(=O)COC(=O)c1ccc(-c2nc3ccccc3s2)s1	inconclusive: 0.631 µM [inhibitor, full curve]	

Compound	Potency	activity change, negative = inhibition
NS(=O)(=O)c1ccc(NS(=O)(=O)c2ccc(NC(=S)Nc3ccccc3)cc2)cc1		inactive: -26%
Oc1c(C(Nc2nccs2)c2ccc(C(F)(F)F)cc2)ccc2cccnc12 (centres undefined)	active: 0.562 µM	
CCOc1ccc(S(=O)(=O)N2CCC(C(=O)NCc3ccncc3)CC2)cc1Cl		inactive: -1.09%
Cc1ccc(N(NC(=O)C(O)(c2ccccc2)c2ccccc2)C(=O)CCl)cc1	active: 6.31 µM	
CCc1ccccc1-n1nnnc1SCC(=O)Nc1cc(C)on1	inconclusive: 31.6 µM [activator, single point]	
O=C(Nc1ncc(Cc2cccc(Cl)c2)s1)C1=NCCN1	active: 2.51 µM	
COc1ccc(C2CC(c3ccccc3)=NN2C(=O)COC(=O)c2nc3nccc(C)n3n2)cc1 (centres undefined)		inactive: 11.9%
Cc1nn(-c2ccccc2)c2c1C1(C(=O)N(C)c3ccccc31)C(C#N)=C(N)O2 (centres undefined)	active: 11.2 µM	
CN(C)c1ncc2nc(-c3cn(C)c4ccccc34)c(=O)n(C[C@H]3CCCO3)c2n1		inactive: -7.28%
O=C(NC1CC1)c1ccc(CSCc2ccccc2Cl)o1	inconclusive: 31.6 µM [activator, single point]	
NS(=O)(=O)c1ccc(NC(=S)NCc2ccc3c(c2)OCO3)cc1		inactive: 1.73%
CCc1ccc(N2CN(Cc3ccco3)CNC2=S)cc1	active: 3.55 µM	
Oc1cccc2c(NC(=S)Nc3ccc(SC(F)F)cc3)cccc12	active: 6.31 µM	
COc1c(O)c2c(=O)cc(OC)c3c4c(OC)cc(=O)c5c(O)c(OC)c6c(c(c1C[C@@](C)(O)[C@H]6C(C)=O)c23)c54	inconclusive: 35.5 µM [inhibitor, single point]	
CC(=O)N1N=C(c2ccccc2)CC1c1ccccc1[N+](=O)[O-] (centres undefined)		inactive: -35.9%
NS(=O)(=O)c1ccc(-c2ccc(C=NC3CCS(=O)(=O)C3)o2)cc1 (centres undefined)		inactive: 25.5%
COCCn1cnc2c1c(=O)n(CC(=O)OCC(=O)NCCCc1ccccc1)c(=O)n2Cc1ccccc1	inconclusive: 10 µM [activator, partial curve]	
CCCc1cc(NC(=O)CCl)n(-c2ccccc2)n1	inconclusive: 35.5 µM [inhibitor, single point]	
CN1C(=O)/C(=C/c2ccc(OCc3ccc(F)cc3)cc2)N(C)C1=S	inconclusive: 12.6 µM [activator, partial curve]	
CCCCn1c(=S)[nH]c2cc(S(=O)(=O)N3CCCCC3)ccc21	active: 11.2 µM	
O=C(COC(=O)c1ccc2c(c1[N+](=O)[O-])C(=O)c1ccccc1C2=O)NC1CC1	inconclusive: 14.1 µM [inhibitor, single point]	
C/C(O)=C(\C#N)c1nnc2n1CCCCC2	inconclusive: 25.1 µM [inhibitor, single point]	
COc1ccc(C(=O)CSc2nn3c(=O)c(C(C)(C)C)nnc3s2)cc1	inconclusive: 31.6 µM [activator, single point]	
CN(C)S(=O)(=O)c1cccc(NC(=S)NC23CC4CC(CC(C4)C2)C3)c1	active: 4.47 µM	

Source: PubChem BioAssay AID2551 (National Center for Advancing Translational Sciences (NCATS), 2010)
